PubChem BioAssay AID602196 | INSERM | 2012
This is one part, drawn at random, of about 23,000 reagents tested. 455 of all reagents (2%) were called active. 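Active includes both protection and sensitisation; some change values fall well beyond the stated -50 to +50 range.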 Further read-outs or replicates are left out here. No sequences are given here. Not given: the amount of reagent.

Test: 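Modifiers of cisplatin sensitivity in A549 cells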
Cells: human A549 lung cancer cells
Reagents: siRNA pair against human genes
Time to read-out: 48 h transfection before cisplatin; time from cisplatin to read-out not stated
Challenge: cisplatin at a dose killing half of control-siRNA cells; exact dose and duration not given
Read-out: 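Shift in cisplatin death relative to control siRNA, from -50 (all cells die) to +50 (no cells die); siRNAs harmful on their own scored 0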
Direction: two-siRNA summed score (-2 to +2): higher = both siRNAs protect from cisplatin killing; -2 means both sensitise; mean protection from cisplatin (shift in death): higher = protection from cisplatin killing
Hit rule: 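Each siRNA scores 0 if harmful alone by LDH or WST-1, otherwise +1 if it reduces and -1 if it increases cisplatin killing; a gene is active when both siRNAs agree (sum +2 or -2)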
Meaning of the calls: active = both siRNAs shift cisplatin killing the same way; inactive = no consistent shift, or siRNA harmful alone

LOC389049 — two-siRNA summed score (-2 to +2) = 0; mean protection from cisplatin (shift in death) (%) = 10.9; call = inactive
BRAP — two-siRNA summed score (-2 to +2) = -1; mean protection from cisplatin (shift in death) (%) = -20.5; call = inactive
METTL27 — two-siRNA summed score (-2 to +2) = 0; mean protection from cisplatin (shift in death) (%) = 2.5; call = inactive
EP400 — two-siRNA summed score (-2 to +2) = 0; mean protection from cisplatin (shift in death) (%) = 9.4; call = inactive
GOSR1 — two-siRNA summed score (-2 to +2) = 0; mean protection from cisplatin (shift in death) (%) = -2; call = inactive
TMEM255A — two-siRNA summed score (-2 to +2) = 0; mean protection from cisplatin (shift in death) (%) = 2.8; call = inactive
ASXL3 — two-siRNA summed score (-2 to +2) = 0; mean protection from cisplatin (shift in death) (%) = 12.9; call = inactive
USP26 — two-siRNA summed score (-2 to +2) = 0; mean protection from cisplatin (shift in death) (%) = -1.2; call = inactive
TSPAN4 — two-siRNA summed score (-2 to +2) = 1; mean protection from cisplatin (shift in death) (%) = 7.9; call = inactive
CYP2E1 — two-siRNA summed score (-2 to +2) = 0; mean protection from cisplatin (shift in death) (%) = -6.9; call = inactive
P3H1 — two-siRNA summed score (-2 to +2) = 0; mean protection from cisplatin (shift in death) (%) = -3.7; call = inactive
ANP32E — two-siRNA summed score (-2 to +2) = 0; mean protection from cisplatin (shift in death) (%) = -0.4; call = inactive
HIGD2A — two-siRNA summed score (-2 to +2) = 0; mean protection from cisplatin (shift in death) (%) = 7.1; call = inactive
LOC441781 — two-siRNA summed score (-2 to +2) = 2; mean protection from cisplatin (shift in death) (%) = 20.7; call = active
FAF1 — two-siRNA summed score (-2 to +2) = 0; mean protection from cisplatin (shift in death) (%) = -19.3; call = inactive
SLC9A5 — two-siRNA summed score (-2 to +2) = 0; mean protection from cisplatin (shift in death) (%) = 0.2; call = inactive
NUMBL — two-siRNA summed score (-2 to +2) = 1; mean protection from cisplatin (shift in death) (%) = 10.1; call = inactive
LOC120376 — two-siRNA summed score (-2 to +2) = 1; mean protection from cisplatin (shift in death) (%) = 6.7; call = inactive
NCOA5 — two-siRNA summed score (-2 to +2) = 0; mean protection from cisplatin (shift in death) (%) = -5.2; call = inactive
RPA4 — two-siRNA summed score (-2 to +2) = -1; mean protection from cisplatin (shift in death) (%) = -3.4; call = inactive
NLK — two-siRNA summed score (-2 to +2) = 1; mean protection from cisplatin (shift in death) (%) = 11.6; call = inactive

Hits, among the entries above:
LOC441781 — two-siRNA summed score (-2 to +2) = 2; mean protection from cisplatin (shift in death) (%) = 20.7; call = active
